Experimental data from PMC3495302, “The putative K^+ channel subunit AtKCO3 forms stable dimers in Arabidopsis” (Frontiers in Plant Science, 2012).
No constants are given. Whether binding was seen depends on the method and setting. Some results given as binding are weak or reduced against the parent protein; the word gives no strength. For some assays here: Tags and fused reporters may be left off the sequences shown. Values belong to the binder of their own block, whether it stands above or below them.

Key:
[1] = target: γTIP (Arabidopsis thaliana (endogenous in leaves)) (UniProt P25818); test: SDS-PAGE and western blot (oligomers not fully denatured); fractions of an isopycnic sucrose gradient of leaf microsomes; blot with anti-γTIP
[2] = target: γTIP (Arabidopsis thaliana (endogenous in leaves)) (UniProt P25818); test: velocity sucrose gradient centrifugation; as with NaCl, but leaf homogenate in 40 mM KCl and gradient with 20 mM KCl, 0.1% Triton X-100; 200,000 x g, 25 h, 4°C; fractions by SDS-PAGE and western blot
[3] = target: AtKCO3::GFP (Arabidopsis thaliana) (UniProt Q9XFR0); test: SDS-PAGE and western blot (oligomers not fully denatured); total leaf extract, samples in 1% SDS, 0.3% 2-mercaptoethanol, 95°C for 4 min; blot with anti-KCO3
[4] = target: AtKCO3::GFP (Arabidopsis thaliana) (UniProt Q9XFR0); test: velocity sucrose gradient centrifugation; as with NaCl, but leaf homogenate in 40 mM KCl and gradient with 20 mM KCl, 0.1% Triton X-100; 200,000 x g, 25 h, 4°C; fractions by SDS-PAGE and western blot
[5] = target: AtKCO3 (Arabidopsis thaliana) (UniProt Q9XFR0); test: as above

binding [1]: binds
binding [2]: binds
B1: γTIP (natural protein, UniProt P25818 1-251, looked up)
chain: MPIRNIAIGRPDEATRPDALKAALAEFISTLIFVVAGSGSGMAFNKLTENGATTPSGLVAAAVAHAFGLFVAVSVGANISGGHVNPAVTFGAFIGGNITLLRGILYWIAQLLGSVVACLILKFATGGLAVPAFGLSAGVGVLNAFVFEIVMTFGLVYTVYATAIDPKNGSLGTIAPIAIGFIVGANILAGGAFSGASMNPAVAFGPAVVSWTWTNHWVYWAGPLVGGGIAGLIYEVFFINTTHEQLPTTDY
notes: gamma-TIP, tonoplast aquaporin of Arabidopsis; detected with an antibody against its C-terminal nine amino acids; also called tonoplast aquaporin γTIP; source: endogenous, Arabidopsis leaf homogenate or microsomes

binding [3]: binds
binding [4]: binds
B2: AtKCO3::GFP (natural protein, Arabidopsis thaliana, UniProt Q9XFR0 1-260, looked up)
chain: MPMTPSEFKNRLLFGSLPRSSSDPTDLQFTEPNVPPSLFSLPEHNDDTATDMAPDQETEQSVSKSIARQALALLVVYLSLGVLIYWLTLDSDNAYQTHPVAVALYFFVVTFCGFLIVHFVVKIGWLDSFCFSVMMVTTVGFGDRAFNTWLGTFLAAVWLLVSTLAVARAFLFLADARADKRNRERAKKVLGESISISQFFAADIDNDGRLSLAEFAIYKLKQMEKITQEDFIQICNQFDKLDRTQSGRITLVDLTTATSV
notes: AtKCO3 of Arabidopsis thaliana, locus AT5G46360; fusion of about 60 kDa; Made with pBI-35S-10H-GFP-JFH1 (Hong et al., 1999); the vector's name may mean further tag residues (surmise); source: transgenic Arabidopsis (CaMV 35S promoter, p35S-KCO3::GFP), in leaf homogenate; not shown: GFP, C-terminal, kept

binding [5]: binds
B3: AtKCO3 (natural protein, Arabidopsis thaliana, UniProt Q9XFR0 1-260, looked up)
chain: MPMTPSEFKNRLLFGSLPRSSSDPTDLQFTEPNVPPSLFSLPEHNDDTATDMAPDQETEQSVSKSIARQALALLVVYLSLGVLIYWLTLDSDNAYQTHPVAVALYFFVVTFCGFLIVHFVVKIGWLDSFCFSVMMVTTVGFGDRAFNTWLGTFLAAVWLLVSTLAVARAFLFLADARADKRNRERAKKVLGESISISQFFAADIDNDGRLSLAEFAIYKLKQMEKITQEDFIQICNQFDKLDRTQSGRITLVDLTTATSV
notes: AtKCO3, putative one-pore K+ channel subunit of Arabidopsis thaliana, locus AT5G46360; cDNA from seedlings of ecotype C24; calculated mass 29 kDa; The AtKCO3 cDNA without tag was put into pBinAR-Kan; also called wild-type protein; source: transgenic Arabidopsis (CaMV 35S promoter, p35S-KCO3), in leaf homogenate
